Experimental data as given in PMC7435177.
These are yes or no findings as the source states them, for the method shown. In cells and extracts the contact can be indirect.

By UniProt entry, the sequences of proteins in these tests, tags left out.
UniProt Q14457: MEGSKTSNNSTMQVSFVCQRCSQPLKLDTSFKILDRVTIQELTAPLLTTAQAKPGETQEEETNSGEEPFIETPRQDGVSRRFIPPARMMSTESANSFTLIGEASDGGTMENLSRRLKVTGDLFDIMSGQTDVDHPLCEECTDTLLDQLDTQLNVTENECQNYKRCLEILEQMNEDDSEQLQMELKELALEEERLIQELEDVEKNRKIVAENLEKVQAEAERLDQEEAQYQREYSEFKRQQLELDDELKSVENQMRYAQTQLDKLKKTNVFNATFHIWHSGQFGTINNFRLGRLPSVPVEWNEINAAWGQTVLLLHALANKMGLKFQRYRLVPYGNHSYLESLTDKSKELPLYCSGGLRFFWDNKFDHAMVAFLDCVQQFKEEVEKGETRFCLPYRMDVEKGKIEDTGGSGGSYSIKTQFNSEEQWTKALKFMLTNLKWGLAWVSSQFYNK

Target: BECLIN1 (human (endogenous in M14-derived melanoma cells)) (UniProt Q14457)
Assay: co-IP; cells lysed at 4 °C in ice-cold lysis buffer; immunoprecipitation with BECLIN1 antibody, complexes captured with protein A+G agarose beads, eluted by boiling in SDS sample buffer, western blot

binding: no binding
B1: S100A8 (protein, UniProt P05109 1-93)
chain: MLTELEKALNSIIDVYHKYSLIKGNFHAVYRDDLKKLLETECPQYIRKKGADVWFKELDINTDGAVNFQEFLILVIKMGVAAHKKSHEESHKE
